Assay results published in the supplement of paper PMC12889115.
This is one part of the list. These are raw signals, not scaled to a control.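 In the initial screen, polymyxin B was used at a concentration that permeabilizes Salmonella's outer membrane but not its inner membrane. Maximum growth was set by DMSO wells with or without polymyxin B. Since plates varied, data were ranked per plate, and compounds giving the lowest OD600 advanced as hits.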

Test system: Salmonella enterica serovar Typhimurium SL1344
Assay: bacterial growth OD600 after 18 h with compound and polymyxin B; higher = more bacterial growth (less inhibition)
Settings: 50 µM, Mueller-Hinton broth

CC(C)(C)C(=O)Nc1ccnn1C1CCN(Cc2ccccc2OCCO)CC1
bacterial growth OD600 (polymyxin B 0.75 µg/mL): 0.809

Cc1ncc2c(c1CNS(=O)(=O)c1cccs1)CCN(C(=O)c1cccc3c(C)c(C)[nH]c13)C2
bacterial growth OD600 (polymyxin B 0.75 µg/mL): 0.765

CN(CCC1CCOCC1)C(=O)c1csc2nc(-c3cccc(F)c3)cn12
bacterial growth OD600 (polymyxin B 0.75 µg/mL): 0.767

CCn1cc(C(=O)NCc2cccnc2N(C)Cc2ccccc2)cn1
bacterial growth OD600 (polymyxin B 1 µg/mL): 0.804

Cn1cc(CN2CCc3[nH]nc(C(c4ccccc4)c4ccccc4)c3C2)cn1
bacterial growth OD600 (polymyxin B 0.75 µg/mL): 0.7

CCC1CN(CCNC(=O)c2ccc(C)cc2)Cc2cc(OC)ccc2O1 (stereo unspecified)
bacterial growth OD600 (polymyxin B 0.75 µg/mL): 0.896

CC#CCN1C(=O)NC(CCc2ccccc2)(C2CCN(C/C=C/c3ccccc3)CC2)C1=O (stereo unspecified)
bacterial growth OD600 (polymyxin B 0.75 µg/mL): 0.739

CSc1ccc(C(=O)NCC2CC(Cc3ccc(F)cc3)=NO2)cc1 (stereo unspecified)
bacterial growth OD600 (polymyxin B 0.75 µg/mL): 0.707

COCc1noc(-c2ccc(N(C)CCn3ccnc3C)nc2)n1
bacterial growth OD600 (polymyxin B 0.75 µg/mL): 0.855

CCCc1cc(CN(C)C(=O)Cn2nnnc2CN2CCC(C)CC2)n[nH]1
bacterial growth OD600 (polymyxin B 0.75 µg/mL): 0.79

O=C(Cn1cccn1)N1CCC(n2c(-c3ccc4c(c3)OCO4)nc3cc(C(F)(F)F)ccc32)CC1
bacterial growth OD600 (polymyxin B 0.75 µg/mL): 0.819

COc1ccc(CCC2CCCN(C(=O)c3ccoc3)C2)cc1 (stereo unspecified)
bacterial growth OD600 (polymyxin B 0.75 µg/mL): 0.588

Cc1ccccc1CC(C1CCN(C(=O)CCCc2ccccc2)CC1)N(C)C(=O)Cn1cccn1 (stereo unspecified)
bacterial growth OD600 (polymyxin B 0.75 µg/mL): 0.846

CCOC(=O)C1(Cc2ccccc2F)CCCN(C(=O)CC(C)C)C1 (stereo unspecified)
bacterial growth OD600 (polymyxin B 1 µg/mL): 0.644

CC(=O)c1cccc(CN2CCCC(CNC(=O)c3cccs3)C2)c1 (stereo unspecified)
bacterial growth OD600 (polymyxin B 1 µg/mL): 0.885

Cc1ccc(CN(C)C(=O)C2(N3C[C@@H](C)O[C@@H](C)C3)Cc3ccccc3C2)o1
bacterial growth OD600 (polymyxin B 1 µg/mL): 1.08

O=C(Cc1ccncc1)N1CCC(C2CCN(c3ncccn3)CC2)C1 (stereo unspecified)
bacterial growth OD600 (polymyxin B 0.75 µg/mL): 0.966

CC(=O)N[C@@H]1c2ccccc2C2(CCN(C(=O)c3ccc4cc[nH]c4c3)CC2)[C@H]1OCc1ccccc1
bacterial growth OD600 (polymyxin B 0.75 µg/mL): 0.528

COc1ccc(CNC(=O)CCC2(Cc3ccc(Cl)cc3)CCC(=O)N2)cc1 (stereo unspecified)
bacterial growth OD600 (polymyxin B 0.75 µg/mL): 1

COc1cccc(-c2cnc(C(F)(F)F)nc2C2CCN(C(=O)CCn3ccc(C)n3)CC2)c1
bacterial growth OD600 (polymyxin B 0.75 µg/mL): 0.74

CC(=O)c1cc(CN2CCCC(C(=O)Nc3ccc(-c4cscn4)cc3)C2)cs1 (stereo unspecified)
bacterial growth OD600 (polymyxin B 1 µg/mL): 0.876

CC(Cn1cccn1)C(=O)N1CCc2[nH]nc(-c3ccc4c(c3)OCO4)c2C1 (stereo unspecified)
bacterial growth OD600 (polymyxin B 0.75 µg/mL): 0.943

NC(=O)[C@@H]1CCCN1C(=O)CC1(c2ccccc2)CC(=O)N(CCCOc2cccnc2)C1=O (stereo partly specified)
bacterial growth OD600 (polymyxin B 0.75 µg/mL): 0.806

CSCC(=O)N1CCCC(C(=O)Nc2cccc(-c3cccc(C)c3)c2)C1 (stereo unspecified)
bacterial growth OD600 (polymyxin B 1 µg/mL): 0.016

COc1ccc(C(=O)N2CCCC2)c(OC2CCN(CC=C(C)C)CC2)c1
bacterial growth OD600 (polymyxin B 0.75 µg/mL): 0.8

CC1(C)Cc2nc(N3CCOCC3)ncc2C(NC(=O)Nc2ccccc2)C1 (stereo unspecified)
bacterial growth OD600 (polymyxin B 0.75 µg/mL): 0.857

Cc1cccc(C2c3[nH]c4ccccc4c3CCN2CCCn2cccn2)n1 (stereo unspecified)
bacterial growth OD600 (polymyxin B 0.75 µg/mL): 0.833

O=C(CC(c1ccccc1)c1cccc(Cl)c1)NCCN1CCOC1=O (stereo unspecified)
bacterial growth OD600 (polymyxin B 1 µg/mL): 0.949

CC1CN(CCC(=O)N2CCC(N3C[C@@H](C)O[C@@H](C)C3)CC2)Cc2cc(Cl)ccc2O1 (stereo partly specified)
bacterial growth OD600 (polymyxin B 0.75 µg/mL): 0.83

CCC(=O)N1CCCC(CCc2ccc(F)c(F)c2)C1 (stereo unspecified)
bacterial growth OD600 (polymyxin B 0.75 µg/mL): 0.561

CC(=O)c1ccc(C(=O)N2CCOc3ccc(C(C)(O)CN(C)C)cc3C2)cc1 (stereo unspecified)
bacterial growth OD600 (polymyxin B 0.75 µg/mL): 1.01
